Laboratory results reported in PubChem BioAssay AID504444 (National Center for Advancing Translational Sciences (NCATS), 2011).
The campaign covered roughly 360,000 compounds. About 7,500 (2.1%) were called active. Inconclusive means that the source gave no clear call. Such entries were picked first, then a sample of the others. The call rests on the fitted dose curve; in most records, active means well fitted inhibition curve with a large enough effect; inconclusive means small, poorly fitted or top-dose-only effect, or effect the other way; inactive means flat fitted curve, though single readings scatter. Where the call is inconclusive, the potency comes from a doubtful curve fit.

Experiment: Nrf2 qHTS screen for inhibitors; further: nearly all actives have a fitted effect of over 60% in size
Conditions: A549 ARE-Fluc reporter, luciferase luminescence, 18-24 h; activity change, negative = inhibition: at 46 µM (top of the series)
How it was run: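 Reporter: ARE-Fluc in A549. Exposure: 18-24 h, 37 °C, 5% CO2, 5% FBS OPTI-MEM. Readouts: fluorescent cytotoxicity (CellTiter-Fluor), then luminescent Nrf2 signal after BugLite.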
On the % scale 0 is the no-effect control and ±100 the full control effect; potency means the concentration at half of the fitted maximal effect.

SMILES	Potency	activity change, negative = inhibition
CCn1cc(C(=O)OCC(=O)Nc2cccc(C)c2)c(=O)c2ccc(C)nc21	inconclusive: 2.91 µM [activator, partial curve]	
O=C(NCC1CCCC(CNC(=O)Nc2ccc(Cl)cn2)C1)Nc1ccc(Cl)cn1 (stereo not given)	inconclusive: 18.4 µM [falling, single point]	
CC(=O)Oc1ccc(N(C(C)=O)S(=O)(=O)c2ccc3ccccc3c2)cc1		inactive: -16.3%
O=C(NCC1CCCCC1)c1ccc(Cl)c(S(=O)(=O)N2CCOCC2)c1	inconclusive: 29.1 µM [falling, single point]	
NC(=O)c1c(NC(=O)c2ccc(F)cc2Cl)sc2c1CCC2	inconclusive: 23.1 µM [activator, single point]	
O=C(O)[C@@H]1CCCN1C(=O)COc1ccc2c3c(c(=O)oc2c1)CCC3	inconclusive: 29.1 µM [falling, single point]	
COc1ccc(CC(=O)Nc2c3c(nn2-c2ccccc2C)CS(=O)C3)cc1 (stereo not given)	inconclusive: 2.59 µM [activator, full curve, poor fit]	
CCCC(=O)NC(c1ccc(OC)cc1)c1ccc2cccnc2c1O (stereo not given)	inconclusive: 29.1 µM [falling, single point]	
CN(C)CCCNC(=O)C(=O)Nc1ccc2c(c1)N(S(=O)(=O)c1cccs1)CCC2	inconclusive: 23.1 µM [activator, partial curve, poor fit]	
COc1ccc(C2=NOC(C(=O)NCCN3CCOCC3)C2)cc1 (stereo not given)	inconclusive: 2.59 µM [activator, full curve, poor fit]	
CCOc1ccc(Cl)cc1S(=O)(=O)N1CCC(C(=O)NCc2ccco2)CC1	inconclusive: 6.51 µM [falling, partial curve, poor fit]	
CCCCOc1ccc(CNC(=O)c2cnc3sc(N4CCOCC4)nn3c2=O)cc1	inconclusive: 29.1 µM [activator, single point]	
CCC(Oc1ccccc1)C(=O)Nc1ncc([N+](=O)[O-])s1 (stereo not given)	inconclusive: 29.1 µM [falling, single point]	
COc1cc([N+](=O)[O-])ccc1-c1ccc(/C=N\n2cnnc2)o1	inconclusive: 3.66 µM [falling, full curve, poor fit]	
COc1cccc(N=C2SC(C(=O)Nc3ccc(F)cc3)CC(=O)N2C)c1 (stereo not given)	active: 20.6 µM	
COC(=O)[C@@]12CCCN1[C@H](c1ccc(-c3ccc(Cl)c(Cl)c3)c(OC)c1)[C@H]1C(=O)N(C)C(=O)[C@H]12	inconclusive: 20.6 µM [falling, single point]	
CN(Cc1nccs1)C(=O)c1ccc2nc(Cc3ccccc3F)oc2c1	inconclusive: 1.64 µM [activator, full curve]	
COc1cccc(OCc2nc3ccccc3n2CCOc2ccccc2C)c1	inconclusive: 29.1 µM [falling, single point]	
COc1cccc(Cn2c(=O)n(-c3ccccc3C)c(=O)c3c2c2cc(C)ccc2n3C)c1	inconclusive: 29.1 µM [falling, single point]	
CCOC(=O)C(C(=O)Nc1ccccn1)C1CCCCC1 (stereo not given)		inactive: 3.52%

SMILES	Potency	activity change, negative = inhibition
O=C(NCCc1ccccc1)C(=O)NCC1CCCN1S(=O)(=O)c1cccs1 (stereo not given)	inconclusive: 20.6 µM [activator, single point]	
Cc1ccc(S(=O)(=O)NCCC(=O)Nc2cccc(Cl)c2)cc1		inactive: -3.08%
CN(CCCC(=O)Nc1ccc(OC(F)F)cc1)S(=O)(=O)c1ccc(F)cc1	inconclusive: 18.4 µM [falling, single point]	
COc1ccc(Cl)cc1C(=O)Nc1ccc(-c2nnc3n2CCCCC3)cc1	active: 23.1 µM	
COc1ccc(-c2cn3ccccc3n2)cc1OC	inconclusive: 1.03 µM [activator, full curve]	
CCN(CC)C(=O)[C@H]1CC(CC(=O)NC/C=C(\C)CCC=C(C)C)C(=O)N2CCc3c([nH]c4ccc(OC)cc34)[C@]12C (stereo not given in full)	inconclusive: 29.1 µM [falling, partial curve, poor fit]	
CC(=O)c1ccc(NC(=O)CCc2c(C)nc3cc(-c4ccc(Cl)cc4)nn3c2C)cc1	inconclusive: 1.3 µM [falling, full curve, poor fit]	
CC(C)(C)c1cc(=O)n2c(C#N)c(C#N)nc2[nH]1		inactive: 2.22%
Cn1c(=O)c(C(=O)CN2CCN(S(=O)(=O)c3ccccc3)CC2)c(N)n(Cc2ccccc2)c1=O	inconclusive: 23.1 µM [falling, partial curve, poor fit]	
Cc1nnc(SCCn2c(N3CCN(C)CC3)nc3c2c(=O)[nH]c(=O)n3C)s1	inconclusive: 0.184 µM [falling, full curve, poor fit]	
CCC(C)C(NC(=O)c1ccc(Cl)cc1)C(=O)Nc1cccnc1 (stereo not given)	inconclusive: 20.6 µM [falling, single point]	
c1ccc2nc(NN=C3CCCCC3)ccc2c1	inconclusive: 18.4 µM [activator, partial curve]	
CCOC(=O)N1CCN(C(=O)CCCn2c(=S)[nH]c3ccccc3c2=O)CC1		inactive: -22.4%
CSc1ccccc1OCc1cc(C(=O)NC2CCc3ccccc32)no1 (stereo not given)		inactive: 13.8%
COc1ccccc1Nc1ccc(C(=O)NC2CCCCC2)cn1	inconclusive: 23.1 µM [falling, partial curve, poor fit]	
CCc1ccc(NC(=O)Cn2c(=O)n(CCC(=O)NCc3ccc4c(c3)OCO4)c(=O)c3ccccc32)cc1	inconclusive: 3.66 µM [falling, full curve, poor fit]	
COc1cc(NC(=O)c2ccccc2NS(=O)(=O)c2ccc(Cl)s2)cc(OC)c1	inconclusive: 20.6 µM [falling, single point]	
Cc1cc(NC(=O)c2cc(-c3ccc(Cl)cc3)on2)nn1Cc1ccc(Cl)cc1	inconclusive: 29.1 µM [falling, single point]	
CCC1CN(C(=O)Nc2cc(C)cc(C)c2)c2ccccc2O1 (stereo not given)	inconclusive: 29.1 µM [falling, single point]	
Cc1ccc(/C=C2\SC(=S)N(CCCC(=O)Nc3ccccn3)C2=O)cc1	active: 2.31 µM	

Compounds from the list above containing an aryl thioether with sulfur outside any ring (2):
SMILES	Potency	activity change, negative = inhibition
Cc1nnc(SCCn2c(N3CCN(C)CC3)nc3c2c(=O)[nH]c(=O)n3C)s1	inconclusive: 0.184 µM [falling, full curve, poor fit]	
CSc1ccccc1OCc1cc(C(=O)NC2CCc3ccccc32)no1 (stereo not given)		inactive: 13.8%
